PubChem BioAssay AID652243 | Drosophila RNAi Screening Center – 2013
In all, the deposit lists about 24,000 reagents; this is a random part of those with a known target gene and a result. Over the whole deposit, 246 (1%) are marked active. 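Plates not normalised; calls are printed but the firefly/Renilla ratio behind them is not deposited; fold cut for lowering reported inconsistently.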 Raw values vary from plate to plate and are shown uncorrected. The record does not give: the amount of reagent.

Assay: 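Fly regulators of androgen-dependent reporter output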 (primary screen)
System: Drosophila S2R+ cells
Knock-down reagent: long dsRNA against Drosophila genes
Time to read-out: 72 h (48 h, then 24 h hormone)
Treatment: synthetic androgen R1881 at 10 nM for 24 h
Detection: 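Per-well raw luminescence of the androgen-driven firefly reporter and of the Renilla control, two replicates each, without normalisation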
Scale: firefly reporter light: higher = more light from androgen-responsive reporter; Renilla control light: higher = more constitutive control signal (cell number, transfection)
Call rule: 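Hit when the log firefly-to-Renilla ratio dropped or increased by a fixed fold versus the mean of GFP or LacZ controls across duplicate plates; lowering cut given as 1.5 and as 3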
Calls: active = hit: reporter lowered or raised; inactive = no hit

gene | DRSC id | firefly reporter light, replicate 1 | firefly reporter light, replicate 2 | Renilla control light, replicate 1 | Renilla control light, replicate 2 | activity call
CG31661 | DRSC00296 | 1.21e5 | 84781 | 6.28e5 | 6.54e5 | inactive
CG31661 | DRSC28732 | 4.59e5 | 5.57e5 | 1.02e6 | 1.53e6 | inactive
Mad | DRSC00759 | 83268 | 67674 | 8.33e5 | 8.42e5 | inactive
CG42260 | DRSC04172 | 3.45e5 | 2.91e5 | 2.22e6 | 1.86e6 | inactive
CG42260 | DRSC04385 | 3.03e5 | 2.96e5 | 2.02e6 | 2.47e6 | inactive
CG13137 | DRSC02234 | 2.29e5 | 2.24e5 | 7.94e5 | 7.54e5 | inactive
CG9826 | DRSC04570 | 2.98e5 | 2.64e5 | 2.03e6 | 1.76e6 | inactive
CG7236 | DRSC03037 | 47125 | 33420 | 4.43e5 | 4.09e5 | inactive
CG7236 | DRSC26976 | 5.24e5 | 4.05e5 | 1.14e6 | 6.47e5 | inactive
TM9SF4 | DRSC01888 | 1.22e6 | 1.28e6 | 2.03e6 | 1.78e6 | inactive
CG34166 | DRSC02482 | 5.96e5 | 5.28e5 | 1.95e6 | 1.66e6 | inactive
CG34166 | DRSC27934 | 6.33e5 | 4.74e5 | 1.59e6 | 1.27e6 | inactive
CG34166 | DRSC39101 | 4.57e5 | 4.32e5 | 1.32e6 | 1.11e6 | inactive
CG14882 | DRSC15006 | 33274 | 56742 | 3.29e5 | 2.73e5 | inactive
CG14882 | DRSC28318 | 3.71e5 | 8.51e5 | 1.15e6 | 1.81e6 | inactive
CG4004 | DRSC19791 | 97194 | 1.65e5 | 8.96e5 | 8.97e5 | inactive
CG4004 | DRSC19882 | 6.22e5 | 5.49e5 | 4.00e6 | 4.25e6 | inactive
CG4004 | DRSC26904 | 3.05e5 | 3.25e5 | 7.20e5 | 8.90e5 | inactive
Mal-A4 | DRSC07236 | 2.68e5 | 3.32e5 | 1.50e6 | 1.38e6 | inactive
Mal-A4 | DRSC28546 | 6.20e5 | 8.63e5 | 1.06e6 | 1.14e6 | inactive
Cndp2 | DRSC04873 | 1.70e5 | 1.83e5 | 1.43e6 | 1.03e6 | inactive
ATPsynF | DRSC04482 | 6.89e5 | 5.50e5 | 2.01e6 | 1.61e6 | inactive
Dref | DRSC03319 | 7.21e5 | 1.07e6 | 5.35e5 | 7.58e5 | inactive
CG5250 | DRSC15752 | 1.68e5 | 1.98e5 | 3.00e6 | 2.87e6 | inactive

Sorted by “firefly reporter light, replicate 2” (ascending): some entries from above.
gene | DRSC id | firefly reporter light, replicate 1 | firefly reporter light, replicate 2 | Renilla control light, replicate 1 | Renilla control light, replicate 2 | activity call
CG7236 | DRSC26976 | 5.24e5 | 4.05e5 | 1.14e6 | 6.47e5 | inactive
CG34166 | DRSC02482 | 5.96e5 | 5.28e5 | 1.95e6 | 1.66e6 | inactive
TM9SF4 | DRSC01888 | 1.22e6 | 1.28e6 | 2.03e6 | 1.78e6 | inactive
